Results: patent publication US20240092919A1
Numbering of substitutions follows the chain as printed. No constants are given. Whether binding was seen depends on the method and setting. Some results given as binding are weak or reduced against the parent protein; the word gives no strength. One block for each binder: values may come before it.

Protein sequences, listed by entry. Tags and fused reporters are not part of them. Lines headed by an entry give the natural chain unless they say otherwise; changes in a name come on top.
UniProt P01848: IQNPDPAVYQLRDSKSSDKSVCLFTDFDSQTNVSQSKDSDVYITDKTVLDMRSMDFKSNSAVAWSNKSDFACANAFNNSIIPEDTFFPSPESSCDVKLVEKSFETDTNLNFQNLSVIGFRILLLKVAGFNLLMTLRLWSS
UniProt P01850: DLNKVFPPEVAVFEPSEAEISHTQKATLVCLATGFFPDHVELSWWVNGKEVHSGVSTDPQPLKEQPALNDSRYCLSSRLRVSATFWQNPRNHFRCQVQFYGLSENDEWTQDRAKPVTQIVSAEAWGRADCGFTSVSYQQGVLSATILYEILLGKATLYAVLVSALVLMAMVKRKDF

How the values were obtained:
[1] = target: Human T cell receptor on human primary T cells (human) (UniProt P01848+P01850); test: flow cytometry competition on human primary T cells; tagless ISVD titrated against a fixed concentration of Flag3-His6-tagged ligand, labelled T017000624 on the sheet; anti-FLAG M2 + PE goat anti-mouse; MFI (mean PE) [panel human primary T cells]
[2] = target: human TCR on human primary T cells (human) (UniProt P01848+P01850); test: flow cytometry competition on human primary T cells

binding [1]: binds | binding [2]: binds
B1: T017000679 (VHH)
VHH: DVQLVESGGGVVQPGGSLRLSCVASGYVHKINFYGWYRQAPGKEREKVAHISIGDQTDYADSAKGRFTISRDESKNTVYLQMNSLRPEDTALYYCRALSRIWPYDYWGQGTLVTVSS

binding [1]: binds | binding [2]: binds
B2: T017000681 (VHH)
VHH: B1 VHH with L92T
